## Primary screen of a compound library

Sequences of proteins named here, by UniProt entry; tags and fusion partners are left off.
UniProt I6X8D2, whole entry: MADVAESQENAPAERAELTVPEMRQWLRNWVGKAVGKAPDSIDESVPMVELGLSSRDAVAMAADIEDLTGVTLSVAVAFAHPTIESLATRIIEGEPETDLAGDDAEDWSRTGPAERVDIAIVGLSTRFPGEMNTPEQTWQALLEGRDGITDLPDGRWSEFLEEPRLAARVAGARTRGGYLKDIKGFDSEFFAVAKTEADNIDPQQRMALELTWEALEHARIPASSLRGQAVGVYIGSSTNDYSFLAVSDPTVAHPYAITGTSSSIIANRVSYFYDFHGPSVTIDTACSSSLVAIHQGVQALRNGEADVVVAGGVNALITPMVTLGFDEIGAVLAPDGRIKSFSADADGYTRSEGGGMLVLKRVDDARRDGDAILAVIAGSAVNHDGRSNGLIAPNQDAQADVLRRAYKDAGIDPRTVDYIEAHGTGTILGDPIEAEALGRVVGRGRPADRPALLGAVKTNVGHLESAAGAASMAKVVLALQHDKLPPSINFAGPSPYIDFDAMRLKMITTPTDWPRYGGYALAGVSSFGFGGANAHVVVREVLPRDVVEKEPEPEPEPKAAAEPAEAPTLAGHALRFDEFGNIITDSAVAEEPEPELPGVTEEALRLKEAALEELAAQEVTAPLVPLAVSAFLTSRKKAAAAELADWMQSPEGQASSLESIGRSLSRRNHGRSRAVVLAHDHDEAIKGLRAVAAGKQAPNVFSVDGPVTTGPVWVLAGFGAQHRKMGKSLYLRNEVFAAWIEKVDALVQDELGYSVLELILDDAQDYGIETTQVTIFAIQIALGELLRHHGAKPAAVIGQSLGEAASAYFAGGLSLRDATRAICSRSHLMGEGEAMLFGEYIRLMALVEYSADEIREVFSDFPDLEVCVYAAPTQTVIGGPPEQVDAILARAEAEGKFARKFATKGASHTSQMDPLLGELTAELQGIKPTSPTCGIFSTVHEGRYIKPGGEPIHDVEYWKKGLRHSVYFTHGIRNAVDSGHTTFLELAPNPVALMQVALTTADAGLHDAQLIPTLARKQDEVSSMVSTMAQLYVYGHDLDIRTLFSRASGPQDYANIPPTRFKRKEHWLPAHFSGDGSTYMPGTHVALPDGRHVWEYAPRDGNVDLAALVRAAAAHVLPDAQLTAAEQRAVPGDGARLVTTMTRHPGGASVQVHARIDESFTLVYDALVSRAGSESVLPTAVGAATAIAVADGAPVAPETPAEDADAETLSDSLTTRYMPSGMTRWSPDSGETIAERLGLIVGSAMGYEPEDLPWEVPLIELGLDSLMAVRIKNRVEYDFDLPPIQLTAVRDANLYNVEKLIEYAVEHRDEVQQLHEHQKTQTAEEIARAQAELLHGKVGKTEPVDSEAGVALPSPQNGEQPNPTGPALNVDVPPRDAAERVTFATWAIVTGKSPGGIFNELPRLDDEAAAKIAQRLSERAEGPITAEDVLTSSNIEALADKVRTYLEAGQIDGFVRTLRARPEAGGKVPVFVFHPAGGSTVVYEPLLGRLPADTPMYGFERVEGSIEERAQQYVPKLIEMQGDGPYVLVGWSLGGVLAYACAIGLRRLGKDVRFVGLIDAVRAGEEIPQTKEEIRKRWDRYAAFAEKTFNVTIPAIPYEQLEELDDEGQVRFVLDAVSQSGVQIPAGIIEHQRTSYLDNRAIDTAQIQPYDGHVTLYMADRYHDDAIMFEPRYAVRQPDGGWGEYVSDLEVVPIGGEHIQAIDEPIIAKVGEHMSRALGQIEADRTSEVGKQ
UniProt P9WNZ1, whole entry: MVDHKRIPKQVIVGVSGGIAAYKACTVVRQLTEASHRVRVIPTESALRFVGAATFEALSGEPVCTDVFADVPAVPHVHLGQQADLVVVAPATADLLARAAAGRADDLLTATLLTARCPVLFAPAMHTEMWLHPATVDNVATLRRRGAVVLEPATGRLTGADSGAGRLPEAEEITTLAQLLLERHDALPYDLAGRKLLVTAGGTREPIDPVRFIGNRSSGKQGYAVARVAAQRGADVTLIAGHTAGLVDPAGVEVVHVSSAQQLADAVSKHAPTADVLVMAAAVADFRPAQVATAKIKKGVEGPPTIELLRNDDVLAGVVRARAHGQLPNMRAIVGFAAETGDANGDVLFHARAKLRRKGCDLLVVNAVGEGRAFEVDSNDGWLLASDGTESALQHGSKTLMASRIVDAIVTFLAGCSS
UniProt P9WFT3, whole entry: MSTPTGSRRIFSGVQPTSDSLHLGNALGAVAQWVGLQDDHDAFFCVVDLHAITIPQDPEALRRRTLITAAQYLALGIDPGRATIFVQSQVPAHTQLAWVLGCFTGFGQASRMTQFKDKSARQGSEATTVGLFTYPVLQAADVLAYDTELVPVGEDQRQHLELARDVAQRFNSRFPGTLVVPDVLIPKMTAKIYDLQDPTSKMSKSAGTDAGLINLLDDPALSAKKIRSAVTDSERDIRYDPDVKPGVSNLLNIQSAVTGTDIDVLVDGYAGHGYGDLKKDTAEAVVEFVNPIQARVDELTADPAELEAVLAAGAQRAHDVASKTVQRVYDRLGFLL

Source: ChEMBL document CHEMBL3988442, “University of Dundee, Small-Polar-MMV Screening Library” (2021).

A: 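Enzyme assay of the thioesterase domain of polyketide synthase 13; the read-out is not stated. Target: Polyketide synthase Pks13, Mycobacterium tuberculosis (UniProt I6X8D2). Tested at 30 µM. The record gives no direction; the compounds picked for IC50 retests had high values, so higher reads as stronger inhibition. Of about 67,000 compounds tested this way, about 300 (0.46%) reached 50% or more in at least one test.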
B: 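Enzyme assay of CoaBC with a phosphate dye (Biomol Green) read at 650 nm. Target: Coenzyme A biosynthesis protein CoaBC, Mycobacterium tuberculosis (UniProt P9WNZ1). Concentration: 30 µM. Higher reads as stronger inhibition, judged from the few compounds that gave an IC50. Most strong results did not repeat in a second test. About 67,000 compounds were tested under these conditions; 0.06% (about 40) showed 50% or more at least once.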
C: 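Cell assay of Leishmania donovani living inside macrophages; the read-out is not stated. Concentration: 30 µM. Higher reads as stronger inhibition (inferred: compounds with an IC50 in retests scored well above the rest). About 69,000 compounds were tested under these conditions; 1.5% (about 1,000) showed 50% or more at least once.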
D: 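Tryptophan-tRNA ligase, Mycobacterium tuberculosis (UniProt P9WFT3). Enzyme assay of tryptophanyl-tRNA synthetase; the read-out is not stated. Compounds at 10 µM. Higher most likely means stronger inhibition; the record gives no direction and few retests gave an IC50. Size under these conditions: about 65,000 compounds, about 64 of them at 50% or above in at least one test.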

Results are given as percent effect. The controls that fix the scale are not given in the record; negative values are as filed. Compounds were drawn at random from those tested, without regard to their results.

With CCN1C[C@H]2CCN(C(=O)C3CCCO3)CC[C@H]2S1(=O)=O (some centres not stated) the screen gave A: -20.17%; D: 0.3236%.
With CCOc1ccc2ccccc2c1CNCC1CCS(=O)(=O)C1.Cl (configuration not stated) the screen gave C: -4.478%.
With CC(C)CN1CCc2[nH]cnc2C12CCN(C(=O)c1ccccn1)CC2 the screen gave A: -15.13%; B: 1.107%; C: 10%; D: -3.336%.
With COc1ccc(C2CCCN2C(=O)CCNc2ncccn2)cc1 (configuration not stated) the screen gave A: -23.32%; B: -3.198%; C: 30.46%; D: 0.2138%.
With O=C(CNC(=O)c1cnc2ccccc2c1O)NCCn1ccnc1 the screen gave A: -1.633%; B: 12.19%; C: 5.344%; D: -3.121%.
With Cc1ccc(CN2C[C@@H]3COC[C@]3(COc3ccc(C#N)cn3)C2)o1 the screen gave A: -20.61%; B: 0.8631%; D: -5.856%.
With Cc1noc(CN2CCC(c3ccnn3CCO)CC2)n1 the screen gave A: -34.98%; B: -0.2571%; C: 34.33%; D: -3.383%.
With O=C1OCCN1CCCN1CCCC1c1ccc(O)cc1 (configuration not stated) the screen gave B: 1.966%; C: -8.74%; D: -2.166%.
With CN1CCN(C[C@H]2CN3CC[C@H]2C[C@@H]3CNC(=O)c2ccco2)CC1 the screen gave A: -19.69%; B: -13.47%; D: -2.2%.
With O=C(NCc1ccccc1)N1C[C@H]2C[C@H](C(=O)N3CCCC3)[C@@H](C1)O2 the screen gave A: -5.841%; B: 6.314%; D: -10.82%.
With CC(C)c1nc2cc(NC(=O)Cn3ccc(=O)[nH]c3=O)ccc2o1 the screen gave A: -0.7391%; B: 3.465%; C: 7.377%; D: -1.867%.
With O=C(O)C(F)(F)F.[H][C@@]12CN(Cc3ccc(C)cc3)C[C@]1([H])CN(C(=O)c1cccn1C)C2 the screen gave C: -2.2%.
With COc1cc2c(cc1CNC(Cc1cccs1)c1nccs1)OCO2.Cl (configuration not stated) the screen gave C: 21.69%.
With c1ccc2nc(N3CCOC(Cn4cccn4)C3)cnc2c1 (configuration not stated) the screen gave A: 12.28%; B: 4.987%; C: 14.81%; D: -52.95%.
With O=C(O)C(F)(F)F.[H][C@@]12CN(Cc3nccn3C)C[C@]1([H])OCCN2c1ccnc(N(C)C)n1 the screen gave C: 22.89%.
With COc1ccc(C(O)CNC(=O)Nc2cc(C)nn2C)cc1 (configuration not stated) the screen gave A: -17.2%; B: 0.266%; C: -16.52%; D: -1.258%.
With CNC(=O)C1CCCCN1C(=O)c1csc(-c2ccccc2)n1 (configuration not stated) the screen gave A: -32.62%; B: -0.9569%; C: 23.47%; D: -1.65%.
With CSCCCNc1ncnc2cccc(F)c12 the screen gave A: -12.49%; B: 7.081%; C: -20.85%; D: -4.776%.
With CCc1ccc(OCC(O)CN2CCN(CCO)CC2)cc1 (configuration not stated) the screen gave A: -6.686%; B: 1.044%; D: -3.009%.
With Cc1ccc(CCN2CCCC23Cc2ccccc2CNC3=O)cc1 (configuration not stated) the screen gave A: -19.43%; B: 0.7895%; C: 13.25%; D: -1.124%.
With COc1ccccc1OCCn1c(C)c(C)oc1=O the screen gave A: -27.19%; B: 9.13%; C: 17.05%; D: 6.616%.
With CC[C@@]1(O)CCN(C(=O)c2ccc(OC(F)F)cc2)C[C@H]1O the screen gave A: 9.049%; B: 3.758%; C: -21.25%; D: -2.828%.
With N#Cc1ccccc1OCCN1CCCC(c2noc(C3CC3)n2)C1 (configuration not stated) the screen gave A: 0.5627%; B: 2.689%; C: 11.66%; D: -2.584%.
With CCN(C)C(=O)c1cc(-c2ccn(C(C)C)n2)n2ccccc12 the screen gave A: -10.13%; C: 17.52%; D: -2.913%.
With CCc1cc(N[C@H](C(N)=O)C(C)C)n2nc(C)c(C)c2n1 the screen gave A: -2.496%; B: -0.2481%; C: -4.762%; D: -1.459%.
With Cn1nc(C2CCCN(Cc3cc(F)ccc3F)C2)c2nccnc21 (configuration not stated) the screen gave A: 5.631%; B: 0.9804%.
With COc1ccc(CC2CN(Cc3cncn3C)CCO2)cc1 (configuration not stated) the screen gave A: -19.72%; B: -3.313%; C: -28.27%; D: -6.946%.
With CCCSc1ncc(CN2CCN(C)C(=O)C2C)cn1 (configuration not stated) the screen gave A: -3.907%; B: -1.241%; C: -31.63%; D: -0.3173%.
With Fc1ccc(OC2CCN(Cc3nnc(-c4ccco4)o3)CC2)cc1 the screen gave A: -21.07%; B: -3.241%; C: -26.36%; D: 0.9372%.
With CS(=O)(=O)N1Cc2ccccc2CC2(CCN(Cc3ccncc3)C2)C1 (configuration not stated) the screen gave A: -15.11%; B: 2.895%; C: -1.615%; D: -6.309%.

The last 3 entries again:

structure	A	B	C	D
CCCSc1ncc(CN2CCN(C)C(=O)C2C)cn1 (configuration not stated)	-3.907%	-1.241%	-31.63%	-0.3173%
Fc1ccc(OC2CCN(Cc3nnc(-c4ccco4)o3)CC2)cc1	-21.07%	-3.241%	-26.36%	0.9372%
CS(=O)(=O)N1Cc2ccccc2CC2(CCN(Cc3ccncc3)C2)C1 (configuration not stated)	-15.11%	2.895%	-1.615%	-6.309%